44 molecules from the supplement of paper PMC11237882 can be followed below.

This is one part of the list. Values are worked out from sequencing counts and are noisy.

To fix the notation:
B1: unnamed (peptide)
chain: LVAWGASLGAWSLLTNRQRNRQAQLLPRAPWKKAQS
B2: unnamed (peptide)
chain: EKSFICYALFGLFATLGFFAPSLYIIPLGISLGIDQ
B3: unnamed (peptide)
chain: KQSTCLSLPKCWDYRRAAVPGLFILFFLRHRCPTLT
B4: unnamed (peptide)
chain: HLSMKLDAFFGIFFGALGGLLLLGVGTFVVLRFWGC
B5: unnamed (peptide)
chain: PSMRPLFDFSWLSLKTLLSLALVGACITLGAYLGHK
B6: unnamed (peptide)
chain: YPPMPAMVPHHGFEDWSQIRYPPPPMAMEHPPPLPN
B7: unnamed (peptide)
chain: ERTGEPSASSDSTGTVGFSSILFIYIIFFLERYYRL
B8: unnamed (peptide)
chain: QNGLYTPQKFIDNRIISSKYTVWNFVPKNLFEQFRR
B9: unnamed (peptide)
chain: LPPSVGRPPGFPGAPSAFTSLPPSPRLSTLRILSPR
B10: unnamed (peptide)
chain: MGPPSSSGFYVSRAVALLLAGLVAALLLALAVLAAS
B11: unnamed (peptide)
chain: YADNILKGFATSLSIVLSTVASIRLFGFHVDPLFAL
B12: unnamed (peptide)
chain: RKGHCPCLTSCPPLHPLLSYLTVTGCMLNMVSAAPK
B13: unnamed (peptide)
chain: INAFLIVYLFILLTKAAVCTTLKYVWQSTPYNDEPW
B14: unnamed (peptide)
chain: PQDAIPRGTMLAIFITTVAYLGVAICVGACVVRDAT
B15: unnamed (peptide)
chain: MDQETVGNVVLLAIVTLISVVQNGFFAHKVEHESRT
B16: unnamed (peptide)
chain: MGKDFRYYSQHPWSRMIVAYLVIFFNFLIFAEDPVS
B17: unnamed (peptide)
chain: ELGMEGKVIKTQNLAALLHAIARRPKGQQLAWDFVR
B18: unnamed (peptide)
chain: QVVALSSWCLLRDSIYYTLSVIALIVFIYDEKVSWW
B19: unnamed (peptide)
chain: MEVKNFAVWDYVVFAALFFISSGIGVFFTIKERKKA
B20: unnamed (peptide)
chain: LVASGCFLLIVLSYVSIVCSILRIHTSEGRHRAFQT
B21: unnamed (peptide)
chain: QTRLEADPGPPAHFRSRPQRREVRPRRRPLRYPCFQ
B22: unnamed (peptide)
chain: KRKAPFFASDFYDALNIQALSAILFIYLATVTNAIT
B23: unnamed (peptide)
chain: TKSKTSPVVSGSSSKSTTLPRPRPTRPSLLRRARLG
B24: unnamed (peptide)
chain: QLDYGVQFTSSRKFFTISPIILYFLASFYTKYDPTH
B25: unnamed (peptide)
chain: AQIVLPALFVGLALVFSLIVPPFGHYPALRLSPTMY
B26: unnamed (peptide)
chain: PFGDSRMYNITFTKVLSVCVWVIMAVLSLPNIILTN
B27: unnamed (peptide)
chain: SHRMEMWLLILVAYMFQRNVNSVHMPTKAVDPEAFM
B28: unnamed (peptide)
chain: LVCVAVWLAVTTQCLPTAIFAATGIQRNRTVCYDLS
B29: unnamed (peptide)
chain: ILLTNLFKALTLPGSSENEYIMKAIMRSFSLLLEAI
B30: unnamed (peptide)
chain: PQFFIVYWLAPSLGILLMILMFSFFLPWLHNHHTIN
B31: unnamed (peptide)
chain: YIYRVIRTTGYLLFILHINACVYYWASNYEGIGTTR
B32: unnamed (peptide)
chain: LITVMLAFIMYMTLRNATQQKDMVENPEPPSGVRCC
B33: unnamed (peptide)
chain: PTTLHLHMIFLRGMLTLGCTLYIVWATLYRCALDIM
B34: unnamed (peptide)
chain: SQVLFERPGIWKDLKTMGSVSLSIFFITLLVLGRQN
B35: unnamed (peptide)
chain: MVSVNSSHCFYNDSFKYTLYGCMFSMVFVLGLISNC
B36: unnamed (peptide)
chain: LAIILTSLIDLINYIFFTGSLWSILLMIGILRRRYQ
B37: unnamed (peptide)
chain: YPEIKSLMKPDPNLIWIIIMMVLTQLGAFYIVKDLD
B38: unnamed (peptide)
chain: GTAQQPRLFVGMILILIFAEVLGLYGLIVALILSTK
B39: unnamed (peptide)
chain: MRYSVPILILLYLCYKFWPGMMDELSELREFYDPDT
B40: unnamed (peptide)
chain: YFCDVYPLLKLACSNIHMIGLLVIANSGLIALVTFL
B41: unnamed (peptide)
chain: NSNKLKGMAQSIFMAGILIGGLVLGDLSDRFGRRPI
B42: unnamed (peptide)
chain: SKSLTWIHLLVIIGSILSYFLFAIVFGAMCVTCNPP
B43: unnamed (peptide)
chain: LVIFLFPLFITVLSYGCILATILCMPTGKQKAFSTC
B44: unnamed (peptide)
chain: YYVSSTVAYAIGMILTFVVLVLMKKGQPALLYLVPW

This assay has as its target T1, Homer1 EVH1 domain.
T1 chain: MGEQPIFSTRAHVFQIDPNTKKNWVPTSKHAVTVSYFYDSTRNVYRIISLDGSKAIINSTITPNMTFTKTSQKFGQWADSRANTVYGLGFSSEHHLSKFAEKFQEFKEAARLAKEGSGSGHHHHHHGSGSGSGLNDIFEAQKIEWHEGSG
The experiment in a line: enrichment score (AUC of log2 frequency ratio across FACS sorting rounds) (log2 AUC); higher = stronger enrichment for Homer1 EVH1 binding.
For the molecule B1, the enrichment score came out at 2.2.
Consider B2, for which the enrichment score amounted to 1.03.
B3: the enrichment score is -0.15.
B4: the enrichment score was determined as 1.23.
On to B5, for which the enrichment score came to 1.77.
B6: the enrichment score came out at 0.501.
B7: the enrichment score came to 0.61.
As for B8, the enrichment score was -1.39.
Regarding B9, the enrichment score was found to be 5.55.
For B10, the enrichment score is -0.222.
B11: the enrichment score was found to be 2.26.
In the case of B12, the enrichment score was 1.43.
Turning to B13, the enrichment score worked out at 1.21.
Consider B14, for which the enrichment score amounted to 4.27.
In the case of B15, the enrichment score is 3.09.
Regarding B16, the enrichment score was -0.558.
For the molecule B17, the enrichment score is 0.194.
In the case of B18, the enrichment score turned out to be 0.124.
Regarding B19, the enrichment score turned out to be 5.13.
As for B20, the enrichment score worked out at 1.85.
Regarding B21, the enrichment score amounted to 3.2.
Consider B22, for which the enrichment score turned out to be 1.44.
B23: the enrichment score was -0.66.
To B24 belongs -2.69; to B25, 4.96; to B26, 3.56.
As for B27, the enrichment score stood at 0.355.
In the case of B28, the enrichment score is -0.57.
As to B29, the enrichment score was found to be 0.189.
Take B30: the enrichment score was 2.91.
With B31, the enrichment score is -0.0143.
For the molecule B32, the enrichment score worked out at 2.72.
Turning to B33, the enrichment score is -3.25.
To B34 belongs 1.47; to B35, -0.302.
Regarding B36, the enrichment score was -3.4.
As for B37, the enrichment score stood at 2.82.
As to B38, the enrichment score turned out to be 1.42.
B39: the enrichment score was 0.288.
On to B40, for which the enrichment score came out at 2.84.
As for B41, the enrichment score is 3.96.
To B42 belongs 0.421.
In the case of B43, the enrichment score came to 2.06.
Turning to B44, the enrichment score is 0.157.
